# This is one part of the list.
# The chains behind the UniProt entries cited, without tags or fusion partners. Where a name states a change or a piece, a line headed by the entry shows the natural chain unless it says otherwise.
# UniProt P51610: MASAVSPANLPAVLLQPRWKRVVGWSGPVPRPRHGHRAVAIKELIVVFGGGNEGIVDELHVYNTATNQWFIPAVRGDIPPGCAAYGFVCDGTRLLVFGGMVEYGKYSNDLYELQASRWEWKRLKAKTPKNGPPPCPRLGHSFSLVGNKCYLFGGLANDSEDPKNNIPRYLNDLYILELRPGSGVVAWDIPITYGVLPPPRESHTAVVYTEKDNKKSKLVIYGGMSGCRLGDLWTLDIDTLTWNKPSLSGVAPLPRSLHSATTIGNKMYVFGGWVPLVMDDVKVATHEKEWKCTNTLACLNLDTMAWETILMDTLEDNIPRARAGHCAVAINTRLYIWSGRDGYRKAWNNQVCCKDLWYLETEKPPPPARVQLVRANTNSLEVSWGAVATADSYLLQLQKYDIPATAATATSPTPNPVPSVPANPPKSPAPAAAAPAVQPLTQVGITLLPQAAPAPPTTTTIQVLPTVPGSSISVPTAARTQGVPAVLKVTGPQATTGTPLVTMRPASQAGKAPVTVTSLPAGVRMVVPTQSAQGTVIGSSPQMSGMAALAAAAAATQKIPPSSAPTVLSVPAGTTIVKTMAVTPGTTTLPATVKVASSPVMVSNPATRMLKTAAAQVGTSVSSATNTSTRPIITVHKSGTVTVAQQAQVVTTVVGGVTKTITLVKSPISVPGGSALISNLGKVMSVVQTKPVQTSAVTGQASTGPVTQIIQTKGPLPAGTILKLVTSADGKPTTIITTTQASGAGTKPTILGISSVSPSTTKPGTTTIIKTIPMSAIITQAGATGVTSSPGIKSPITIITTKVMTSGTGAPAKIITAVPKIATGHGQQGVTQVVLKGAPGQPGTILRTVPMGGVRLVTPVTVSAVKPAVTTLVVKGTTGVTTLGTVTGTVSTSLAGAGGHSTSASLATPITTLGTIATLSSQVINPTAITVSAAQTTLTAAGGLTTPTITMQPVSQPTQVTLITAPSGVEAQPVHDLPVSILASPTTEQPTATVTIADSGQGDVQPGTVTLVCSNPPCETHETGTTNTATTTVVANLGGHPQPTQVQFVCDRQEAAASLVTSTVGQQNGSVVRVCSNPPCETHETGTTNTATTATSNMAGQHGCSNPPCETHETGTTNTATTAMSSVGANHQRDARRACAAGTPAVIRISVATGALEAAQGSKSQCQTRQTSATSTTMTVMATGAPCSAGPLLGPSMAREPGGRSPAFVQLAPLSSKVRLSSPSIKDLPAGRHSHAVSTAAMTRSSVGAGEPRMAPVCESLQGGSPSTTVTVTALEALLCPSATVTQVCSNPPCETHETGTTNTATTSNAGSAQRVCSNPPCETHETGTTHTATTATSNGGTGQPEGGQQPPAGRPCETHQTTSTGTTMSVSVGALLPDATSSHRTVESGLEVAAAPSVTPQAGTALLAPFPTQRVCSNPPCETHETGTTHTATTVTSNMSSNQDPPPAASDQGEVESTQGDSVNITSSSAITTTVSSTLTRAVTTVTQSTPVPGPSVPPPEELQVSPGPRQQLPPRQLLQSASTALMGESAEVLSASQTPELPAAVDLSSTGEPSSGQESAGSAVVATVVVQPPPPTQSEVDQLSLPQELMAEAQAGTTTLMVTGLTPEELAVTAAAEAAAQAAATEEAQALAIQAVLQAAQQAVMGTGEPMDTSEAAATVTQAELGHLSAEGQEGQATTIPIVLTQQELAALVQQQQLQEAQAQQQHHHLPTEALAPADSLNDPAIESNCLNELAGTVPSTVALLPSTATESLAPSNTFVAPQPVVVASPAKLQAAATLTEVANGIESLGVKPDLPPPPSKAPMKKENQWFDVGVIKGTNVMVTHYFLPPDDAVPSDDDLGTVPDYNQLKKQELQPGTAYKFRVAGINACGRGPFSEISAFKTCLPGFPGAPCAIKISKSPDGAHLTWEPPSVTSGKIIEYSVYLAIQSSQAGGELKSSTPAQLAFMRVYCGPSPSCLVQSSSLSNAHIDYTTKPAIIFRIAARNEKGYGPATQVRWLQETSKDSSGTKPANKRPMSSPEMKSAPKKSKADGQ
# UniProt Q9ULT8: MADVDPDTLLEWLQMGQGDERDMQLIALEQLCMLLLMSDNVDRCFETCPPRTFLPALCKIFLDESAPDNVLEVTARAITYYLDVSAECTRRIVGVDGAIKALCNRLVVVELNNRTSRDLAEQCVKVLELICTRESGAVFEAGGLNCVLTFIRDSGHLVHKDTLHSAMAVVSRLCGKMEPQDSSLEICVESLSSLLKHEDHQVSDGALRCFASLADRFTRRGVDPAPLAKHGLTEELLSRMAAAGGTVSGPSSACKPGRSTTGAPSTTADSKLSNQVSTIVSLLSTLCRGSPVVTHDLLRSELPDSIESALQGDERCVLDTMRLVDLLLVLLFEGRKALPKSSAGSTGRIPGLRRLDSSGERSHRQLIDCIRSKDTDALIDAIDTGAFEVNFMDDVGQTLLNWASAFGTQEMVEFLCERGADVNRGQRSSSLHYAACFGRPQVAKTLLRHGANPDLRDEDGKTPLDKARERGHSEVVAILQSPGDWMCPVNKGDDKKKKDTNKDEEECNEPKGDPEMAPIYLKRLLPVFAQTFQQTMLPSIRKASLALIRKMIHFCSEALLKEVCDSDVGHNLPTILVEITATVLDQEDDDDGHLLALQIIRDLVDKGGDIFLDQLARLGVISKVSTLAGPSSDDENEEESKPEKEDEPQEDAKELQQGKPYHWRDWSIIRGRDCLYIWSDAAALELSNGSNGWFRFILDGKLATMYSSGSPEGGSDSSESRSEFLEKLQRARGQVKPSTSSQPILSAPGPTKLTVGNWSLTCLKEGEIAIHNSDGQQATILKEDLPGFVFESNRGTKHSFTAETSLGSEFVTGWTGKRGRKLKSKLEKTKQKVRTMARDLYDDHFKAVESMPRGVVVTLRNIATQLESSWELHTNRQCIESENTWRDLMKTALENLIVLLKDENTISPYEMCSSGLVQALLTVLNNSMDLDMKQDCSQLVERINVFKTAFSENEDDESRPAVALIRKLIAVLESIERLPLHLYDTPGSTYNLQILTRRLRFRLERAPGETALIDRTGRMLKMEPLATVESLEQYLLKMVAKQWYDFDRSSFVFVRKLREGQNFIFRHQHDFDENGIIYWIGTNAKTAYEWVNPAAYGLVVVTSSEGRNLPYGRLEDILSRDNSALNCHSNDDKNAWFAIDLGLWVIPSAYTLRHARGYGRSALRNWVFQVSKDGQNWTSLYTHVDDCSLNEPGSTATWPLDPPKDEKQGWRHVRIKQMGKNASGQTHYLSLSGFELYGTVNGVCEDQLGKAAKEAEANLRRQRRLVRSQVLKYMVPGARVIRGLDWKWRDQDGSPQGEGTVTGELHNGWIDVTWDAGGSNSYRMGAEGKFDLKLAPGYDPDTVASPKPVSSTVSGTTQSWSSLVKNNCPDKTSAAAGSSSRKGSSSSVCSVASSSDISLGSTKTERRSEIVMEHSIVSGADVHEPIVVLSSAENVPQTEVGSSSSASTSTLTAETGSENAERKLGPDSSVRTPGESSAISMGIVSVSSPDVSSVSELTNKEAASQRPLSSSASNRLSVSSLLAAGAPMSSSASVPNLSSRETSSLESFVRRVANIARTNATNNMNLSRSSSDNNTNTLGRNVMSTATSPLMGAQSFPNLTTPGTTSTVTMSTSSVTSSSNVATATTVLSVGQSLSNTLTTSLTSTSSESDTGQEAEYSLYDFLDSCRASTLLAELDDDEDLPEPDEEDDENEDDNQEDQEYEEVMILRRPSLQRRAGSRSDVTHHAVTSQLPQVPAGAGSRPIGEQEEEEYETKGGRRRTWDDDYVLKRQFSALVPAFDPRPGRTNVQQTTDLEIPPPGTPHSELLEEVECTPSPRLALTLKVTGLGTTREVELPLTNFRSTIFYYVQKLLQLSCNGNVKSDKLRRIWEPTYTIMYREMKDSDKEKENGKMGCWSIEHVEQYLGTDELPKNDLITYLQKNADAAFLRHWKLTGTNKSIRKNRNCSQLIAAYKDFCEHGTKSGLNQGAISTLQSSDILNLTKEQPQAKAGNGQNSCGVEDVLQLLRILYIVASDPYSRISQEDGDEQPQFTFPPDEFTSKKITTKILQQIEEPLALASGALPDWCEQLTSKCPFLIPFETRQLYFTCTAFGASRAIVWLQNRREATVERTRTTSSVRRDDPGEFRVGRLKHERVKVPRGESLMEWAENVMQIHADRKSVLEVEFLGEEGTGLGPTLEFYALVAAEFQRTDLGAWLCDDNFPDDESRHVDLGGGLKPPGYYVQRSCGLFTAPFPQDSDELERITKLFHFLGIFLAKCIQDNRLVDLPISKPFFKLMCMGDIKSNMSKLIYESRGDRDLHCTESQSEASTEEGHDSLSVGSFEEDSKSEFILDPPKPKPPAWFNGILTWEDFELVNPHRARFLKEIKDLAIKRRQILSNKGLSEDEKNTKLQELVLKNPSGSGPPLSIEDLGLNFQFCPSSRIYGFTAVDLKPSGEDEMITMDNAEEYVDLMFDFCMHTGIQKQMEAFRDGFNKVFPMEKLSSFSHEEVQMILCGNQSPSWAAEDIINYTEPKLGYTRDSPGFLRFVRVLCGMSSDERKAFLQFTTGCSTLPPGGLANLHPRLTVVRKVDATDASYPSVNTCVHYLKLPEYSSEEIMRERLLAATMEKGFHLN
# UniProt Q7Z4H3: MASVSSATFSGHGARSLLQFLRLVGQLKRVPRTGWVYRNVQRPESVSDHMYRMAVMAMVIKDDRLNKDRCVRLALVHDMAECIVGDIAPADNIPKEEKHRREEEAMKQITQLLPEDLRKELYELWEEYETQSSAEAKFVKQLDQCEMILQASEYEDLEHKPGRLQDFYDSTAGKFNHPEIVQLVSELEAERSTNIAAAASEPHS
# UniProt Q53FT3: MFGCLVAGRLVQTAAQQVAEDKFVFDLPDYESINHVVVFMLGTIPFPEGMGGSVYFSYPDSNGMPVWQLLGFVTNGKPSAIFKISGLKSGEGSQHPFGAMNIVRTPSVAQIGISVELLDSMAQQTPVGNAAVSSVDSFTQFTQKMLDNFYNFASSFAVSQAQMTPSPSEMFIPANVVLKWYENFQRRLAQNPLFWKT
# UniProt P52789: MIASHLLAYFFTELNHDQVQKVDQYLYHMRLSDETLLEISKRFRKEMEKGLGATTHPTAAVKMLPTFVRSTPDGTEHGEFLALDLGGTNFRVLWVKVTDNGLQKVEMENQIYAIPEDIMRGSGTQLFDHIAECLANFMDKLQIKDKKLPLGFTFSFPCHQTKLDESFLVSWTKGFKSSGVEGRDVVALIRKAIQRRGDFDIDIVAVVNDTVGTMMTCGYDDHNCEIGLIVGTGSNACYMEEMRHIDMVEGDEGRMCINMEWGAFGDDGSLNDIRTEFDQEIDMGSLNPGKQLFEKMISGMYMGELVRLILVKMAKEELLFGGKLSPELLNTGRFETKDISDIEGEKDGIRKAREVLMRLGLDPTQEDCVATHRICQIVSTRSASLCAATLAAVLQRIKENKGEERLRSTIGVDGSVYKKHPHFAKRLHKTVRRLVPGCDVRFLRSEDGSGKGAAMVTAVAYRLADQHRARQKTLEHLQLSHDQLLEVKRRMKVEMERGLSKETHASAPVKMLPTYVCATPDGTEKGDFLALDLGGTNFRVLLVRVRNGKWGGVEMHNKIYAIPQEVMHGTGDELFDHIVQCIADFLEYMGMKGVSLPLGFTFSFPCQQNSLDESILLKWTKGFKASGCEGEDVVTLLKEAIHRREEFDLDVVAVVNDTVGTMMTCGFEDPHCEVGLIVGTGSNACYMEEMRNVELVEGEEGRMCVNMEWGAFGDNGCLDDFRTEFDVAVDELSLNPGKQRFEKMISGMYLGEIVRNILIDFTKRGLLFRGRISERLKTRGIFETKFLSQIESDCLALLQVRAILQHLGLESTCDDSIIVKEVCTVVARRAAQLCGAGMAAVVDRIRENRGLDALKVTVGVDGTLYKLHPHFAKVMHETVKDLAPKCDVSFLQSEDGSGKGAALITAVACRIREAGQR
# UniProt Q9BW71: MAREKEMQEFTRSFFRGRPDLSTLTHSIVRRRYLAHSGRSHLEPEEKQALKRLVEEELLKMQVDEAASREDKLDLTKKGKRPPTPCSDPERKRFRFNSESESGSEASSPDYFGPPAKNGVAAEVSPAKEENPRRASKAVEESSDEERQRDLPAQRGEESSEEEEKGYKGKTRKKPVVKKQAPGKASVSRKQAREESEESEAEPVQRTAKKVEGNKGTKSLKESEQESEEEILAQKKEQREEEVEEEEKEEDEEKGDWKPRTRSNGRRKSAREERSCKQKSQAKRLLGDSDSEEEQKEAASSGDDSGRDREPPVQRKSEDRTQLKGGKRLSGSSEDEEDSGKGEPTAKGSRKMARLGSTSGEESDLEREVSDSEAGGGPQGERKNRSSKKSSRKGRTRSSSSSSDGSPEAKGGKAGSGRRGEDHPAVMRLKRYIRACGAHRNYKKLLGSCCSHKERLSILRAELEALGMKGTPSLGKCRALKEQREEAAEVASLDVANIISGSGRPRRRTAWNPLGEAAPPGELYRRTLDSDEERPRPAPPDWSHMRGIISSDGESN
# Compound: Cc1cc(ccc1-c1ccccc1)C(=O)N1CCCN(CC1)C(=O)CCl [compound 10]
# Experiment: probe-labelled cysteine peptide fold change vs DMSO (competition) (log2 fold change); higher = less target engagement (more negative = stronger competition)
# Conditions: THP-1, incubation time: 4 h
# 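Also: competitive profiling in live THP-1 cells: cysteine peptides tagged with an iodoacetamide desthiobiotin (IA-DTB) probe, intensity after compound treatment relative to DMSO-treated cells.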
Target,probe-labelled cysteine peptide fold change (10 µM),probe-labelled cysteine peptide fold change (50 µM)
HCFC1_P51610_227_LVIYGGMSGCR (UniProt P51610),-0.0506,-0.268
HEATR3_Q7Z4Q2_57_ECACAGLAR (UniProt Q7Z4Q2),-1.43,-4.94
HERC2_O95714_3865_VLVALACDLELDTLPCCAETHK (UniProt O95714),-0.408,-0.502
HERC5_Q9UII4_892_MCDEDIIK (UniProt Q9UII4),-0.0238,-0.282
HECTD1_Q9ULT8_254_MAAAGGTVSGPSSACKPGR (UniProt Q9ULT8),-0.115,-0.376
HLA-E_P13747_280_YTCHVQHEGLPEPVTLR (UniProt P13747),-0.061,0.0876
HECTD1_Q9ULT8_1127_DNSALNCHSNDDK (UniProt Q9ULT8),-0.209,-0.0644
HDGFL2_Q7Z4V5_496_CLNALEELGTLQVTSQILQK (UniProt Q7Z4V5),0.306,0.177
HK1_P19367_834_RAAQLCGAGMAAVVDK (UniProt P19367),0.0405,-0.415
HDLBP_Q00341_948_CDIIIISGR (UniProt Q00341),-0.0282,-0.0117
HEXA_P06865_522_RGVQAQPLNVGFCEQEFEQT (UniProt P06865),-0.149,0.255
HEATR5B_Q9P2D3_1137_TDIHCR (UniProt Q9P2D3),-0.384,-0.96
HDDC2_Q7Z4H3_82_LALVHDMAECIVGDIAPADNIPK (UniProt Q7Z4H3),0.167,-0.0308
HIKESHI_Q53FT3_4_MFGCLVAGR (UniProt Q53FT3),0.0273,0.227
HDDC3_Q8N4P3_133_CTPEGWSEHR (UniProt Q8N4P3),0.13,-0.00995
HIBCH_Q6NVY1_95_AFCAGGDIR (UniProt Q6NVY1),0.00459,0.0296
HMGXB3_Q12766_800_TCGLKPSTLK (UniProt Q12766),-0.277,-0.603
HLA-DRA_P01903_188_KFHYLPFLPSTEDVYDCR,-0.0489,-0.104
HDAC5_Q9UQL6_696_HQCMCGNTHVHPEHAGR (UniProt Q9UQL6),0.0181,0.0687

# Single records, as listed above. Order of values: probe-labelled cysteine peptide fold change (10 µM) | probe-labelled cysteine peptide fold change (50 µM)
# HDDC2_Q7Z4H3_82_LALVHDMAECIVGDIAPADNIPK (UniProt Q7Z4H3) is entered as 0.167 | -0.0308
# HIKESHI_Q53FT3_4_MFGCLVAGR (UniProt Q53FT3) is entered as 0.0273 | 0.227

# Later entries.

Target,probe-labelled cysteine peptide fold change (10 µM),probe-labelled cysteine peptide fold change (50 µM)
HELZ_P42694_601_LPLCEMHYALDR (UniProt P42694),-0.00554,0.166
HDHD2_Q9H0R4_194+206_GTGCEPEEAVMIGDDCRDDVGGAQDVGMLGILVK (UniProt Q9H0R4),0.102,0.512
HCFC1_P51610_149_CYLFGGLANDSEDPK (UniProt P51610),-0.0552,0.278
HEXIM2_Q96MH2_80_TQSPGGCSAEAVLAR (UniProt Q96MH2),-0.0675,-0.314
HDLBP_Q00341_948_RCDIIIISGR (UniProt Q00341),-0.0376,-0.000543
HK2_P52789_909_GAALITAVACR (UniProt P52789),-0.0759,0.143
HK3_P52790_269_VCVSVEWGSFSDDGALGPVLTTFDHTLDHESLNPGAQR (UniProt P52790),0.11,-0.559
HK2_P52789_794_FLSQIESDCLALLQVR (UniProt P52789),0.24,-0.122
HECTD4_Q9Y4D8_3446_CACIDVR (UniProt Q9Y4D8),-0.0352,-0.0833
HIRIP3_Q9BW71_449+450_LLGSCCSHK (UniProt Q9BW71),0.225,-0.859
HIP1_O00291_430_QQAADDCEFLR (UniProt O00291),0.0761,0.11
HK1_P19367_158_KLPVGFTFSFPCQQSK (UniProt P19367),-0.153,0.124
HECTD1_Q9ULT8_316_CVLDTMR (UniProt Q9ULT8),-0.264,0.0341
HGD_Q93099_180_MLVQPNEICVIQR (UniProt Q93099),-0.089,0.177
HECTD1_Q9ULT8_1944_NCSQLIAAYK (UniProt Q9ULT8),-0.00574,-0.32
HLA-DRA_P01903_132_EPNVLICFIDK,0.0668,0.138
HIRIP3_Q9BW71_86_RPPTPCSDPER (UniProt Q9BW71),-0.266,-0.993
HERC2_O95714_1037_ISSCLDFEQHSR (UniProt O95714),0.0441,0.321
